PubChem BioAssay AID624291 (National Center for Advancing Translational Sciences (NCATS), 2012)
Screen size: about 350,000 compounds; about 220 (0.063%) were called active. This list was built around the results that the source calls inconclusive (neither active nor inactive); the mix of calls is not that of the screen. The call rests on the fitted dose curve; in most records, active means well fitted activation curve with a large enough effect; inconclusive means small, poorly fitted or top-dose-only effect; inactive means no such curve, though single readings can be large or run the other way. Potencies of inconclusive entries are doubtful fits and often do not repeat.

Assay: qHTS for Activators of Integrin-Mediated Alleviation for Muscular Dystrophy; further: nearly all actives have a fitted effect of over 60% in size;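 on activation: 100% = response of the positive control SU9516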
Conditions: alpha7betagal myoblasts, beta-gal FDG fluorescence, 48 h; activation: at 38.3 µM (top of the series)
Method in brief: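 Alpha7betagal+/- myoblasts (passage 13) were plated 16-24 hr, then exposed to compounds (1:260 dilution of DMSO stock) for 48 hours at 37C. After MPER lysis, β-galactosidase reporter activity was read as FDG fluorescence (ex 480/em 540) after 30 minutes.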
Potency means the concentration at half of the fitted maximal effect.

Row | Compound | activation | Potency
1 | Cc1cc(-c2csc(N)n2)c(C)n1CCC(C)C | inactive: -20.9% | –
2 | C/C(Cn1cnc([N+](=O)[O-])n1)=N/NC(=O)COc1c(Cl)cc(Cl)cc1Cl | – | inconclusive: 5.01 µM [activator, single point]
3 | Cc1ccc(NS(=O)(=O)c2ccc3c(c2)NC(=O)CO3)cc1 | – | inconclusive: 14.1 µM [activator, single point]
4 | CN(C)/C=C/C(=O)c1ccc(Cl)c([N+](=O)[O-])c1 | inactive: -38.2% | –
5 | COc1ccc(-c2cc(C(F)(F)F)nc(SCCC(=O)N3CCN(C)CC3)n2)cc1 | – | inconclusive: 14.1 µM [activator, single point]
6 | CN(C(=O)COC(=O)c1ccc(=O)n(Cc2ccccc2)n1)c1ccccc1 | – | inconclusive: 22.4 µM [activator, single point]
7 | CNS(=O)(=O)c1cccc(C(=O)OCC(=O)c2cc(C)n(-c3ccc4c(c3)OCO4)c2C)c1 | inactive: -18.8% | –
8 | Cc1noc(C)c1COc1ccccc1C(=O)NCCOc1ccccc1F | – | inconclusive: 0.794 µM [activator, full curve, poor fit]
9 | CCc1nonc1NC(=O)COc1ccc(Cl)c(C)c1 | – | inconclusive: 5.01 µM [activator, single point]
10 | O=C(CN1c2ccccc2S(=O)(=O)c2ccccc21)NCc1ccccc1 | – | inconclusive: 3.98 µM [activator, single point]
11 | COc1ccccc1S(=O)(=O)N1CCN(S(=O)(=O)c2ccccc2C#N)CC1 | – | inconclusive: 3.55 µM [activator, full curve]
12 | Fc1ccccc1N1CCN(C(c2ccccn2)c2nnnn2C2CCCCC2)CC1 (centres undefined) | inactive: 8.97% | –
13 | COc1cc(NC(=O)CC(C)C)ccc1NC(=O)c1ccco1 | – | inconclusive: 14.1 µM [activator, single point]
14 | Cn1cc(CN(CCO)Cc2cccs2)c(-c2ccccc2F)n1 | – | inconclusive: 10 µM [activator, partial curve, poor fit]
15 | COC(=O)c1sc2nc3c(cc2c1N)CCCC3 | – | inconclusive: 5.01 µM [activator, single point]
16 | Cc1ccc(NC2CCCN(C(=O)c3ccccc3N3CCOCC3)C2)cc1C (centres undefined) | – | inconclusive: 28.2 µM [activator, single point]
17 | CCC(NC(=O)C1CCCC1)c1ccccc1 (centres undefined) | – | inconclusive: 3.16 µM [activator, single point]
18 | Cn1c(=O)cc(OCCCC(=O)N2CCN(c3ccccc3)CC2)c2ccccc21 | inactive: -6.22% [at 7.66 µM] | –
19 | Cn1nnc(NC(=S)NC(=O)c2ccco2)n1 | inactive: 22.5% | –
20 | CCN(C[C@H]1N[C@@](CC)(C(=O)OC)[C@H]2C(=O)N(Cc3ccccc3)C(=O)[C@@H]12)S(=O)(=O)c1ccc(-c2ccccc2)cc1 | inactive: 35.4% | –
21 | COc1ccc(Br)c(C(=O)Nc2cccc(Cl)c2Cl)c1 | – | inconclusive: 12.6 µM [activator, single point]
22 | O=C(CSc1nc2ccccc2[nH]1)NCc1ccccc1 | – | inconclusive: 0.891 µM [activator, partial curve, poor fit]

Copied from the list:
For Potency, C/C(Cn1cnc([N+](=O)[O-])n1)=N/NC(=O)COc1c(Cl)cc(Cl)cc1Cl has inconclusive: 5.01 µM [activator, single point]
For activation, Cc1cc(-c2csc(N)n2)c(C)n1CCC(C)C has inactive: -20.9%

The list goes on.

Row | Compound | activation | Potency
23 | O=C(O)CCCCCNC(=O)c1ccccc1Br | – | inconclusive: 10 µM [activator, partial curve, poor fit]
24 | Cc1ccc(S(=O)(=O)N2CCC(C(=O)Nc3nnc(C)s3)CC2)cc1 | – | inconclusive: 10 µM [activator, partial curve, poor fit]
25 | CC(=O)Nc1ccc2ccc3cccc4ccc1c2c34 | inactive: 4.64% | –
26 | Cc1cc(C)c(Cn2cnc3ccccc32)c(C)c1 | – | inconclusive: 5.01 µM [activator, single point]
27 | COc1cccc(/C=N/NC(=O)c2c(C)nc3ccc(Br)cn23)c1O | inactive: -28.2% | –
28 | O=C(COC(=O)C1CCN(C(=O)c2ccc(Cl)cc2)CC1)NC1CCS(=O)(=O)C1 (centres undefined) | – | inconclusive: 5.01 µM [activator, single point]
29 | Cc1nnc(SCCOC(N)=O)n1C | – | inconclusive: 25.1 µM [activator, partial curve, poor fit]
30 | CCCN1CCC(NC(=O)Nc2cccc3ccccc23)CC1 | – | inconclusive: 0.891 µM [activator, partial curve, poor fit]
31 | Cc1ccc(N(CC(N)=O)C2SC(=O)NC2=O)cc1 (centres undefined) | – | inconclusive: 28.2 µM [activator, single point]
32 | CCOC(=O)C1CCN(C(=O)CCc2nnc3ccc(N4CCC(C)CC4)nn23)CC1 | – | inconclusive: 3.55 µM [activator, single point]
33 | NC(=O)C12C(=O)NC(=O)C1(C(=O)O)C21CCCC1 (centres undefined) | – | inconclusive: 5.01 µM [activator, single point]
34 | CCOC(=O)C1=C(C)C/C(=N\NC(=O)c2ccccc2O)CC1 | – | inconclusive: 4.47 µM [activator, single point]
35 | COc1ccc(S(=O)(=O)N(CCc2ccccc2)CC(=O)O)cc1Cl | – | inconclusive: 3.16 µM [activator, partial curve, poor fit]
36 | CCCCN1C(=O)N(c2ccccc2Cl)C(C)(O)CC1(C)C (centres undefined) | – | inconclusive: 5.01 µM [activator, single point]
37 | Fc1ccc(N2CCN(/C=C/c3nnnn3-c3ccccc3)CC2)cc1 | – | inconclusive: 11.2 µM [activator, single point]
38 | CC1CN(C(=O)c2ccc(Oc3ccccc3)cc2)CC(C)O1 (centres undefined) | – | inconclusive: 7.94 µM [activator, partial curve, poor fit]
39 | CC(=O)NC(Cc1c[nH]c2ccccc12)C(=O)OCC(=O)N1CCCCCC1 (centres undefined) | – | inconclusive: 12.6 µM [activator, partial curve, poor fit]
40 | O=C(CSc1nnc(CNC(=O)c2ccco2)o1)Nc1nc2ccccc2s1 | inactive: 12% | –
41 | CCCn1nc(NS(C)(=O)=O)c2cc3cccc(C)c3nc21 | inactive: -4.71% | –
42 | Cc1ccc(NC(=O)c2cncc(Br)c2)nc1 | – | inconclusive: 5.62 µM [activator, full curve, poor fit]
43 | Cc1ccc(C(=O)NC(=S)Nc2ccc(N3CCOCC3)cc2)c(C)c1 | inactive: -25.3% | –
44 | N/C(Cn1cncn1)=N\OC(=O)c1ccc(Cl)cc1Cl | – | inconclusive: 0.891 µM [activator, full curve, poor fit]
